Laboratory results taken from article doi:10.1101/2024.11.07.622424.
These are yes or no findings as the source states them, for the method shown. Binding seen in cells or lysates may run through a third protein. Some binding calls cover weakened binding; strength is not graded here. For some of these results: Where a sequence is shown, tags or fusion partners need not be part of it.

Chains of the proteins cited; added tags and fusions are not shown. Residues count along the entry.
UniProt P25490, whole entry: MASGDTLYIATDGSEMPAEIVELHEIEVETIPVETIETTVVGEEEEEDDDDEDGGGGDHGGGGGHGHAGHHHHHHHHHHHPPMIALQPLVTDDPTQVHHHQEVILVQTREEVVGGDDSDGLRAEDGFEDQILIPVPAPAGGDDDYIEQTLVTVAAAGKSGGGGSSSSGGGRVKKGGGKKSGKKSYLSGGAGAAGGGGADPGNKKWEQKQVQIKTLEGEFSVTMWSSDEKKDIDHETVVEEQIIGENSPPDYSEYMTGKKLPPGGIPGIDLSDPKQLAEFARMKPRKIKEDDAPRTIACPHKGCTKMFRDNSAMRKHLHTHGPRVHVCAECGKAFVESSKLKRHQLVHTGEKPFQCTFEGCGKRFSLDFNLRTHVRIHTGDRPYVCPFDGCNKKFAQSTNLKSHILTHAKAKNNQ
UniProt P25490, 1-320: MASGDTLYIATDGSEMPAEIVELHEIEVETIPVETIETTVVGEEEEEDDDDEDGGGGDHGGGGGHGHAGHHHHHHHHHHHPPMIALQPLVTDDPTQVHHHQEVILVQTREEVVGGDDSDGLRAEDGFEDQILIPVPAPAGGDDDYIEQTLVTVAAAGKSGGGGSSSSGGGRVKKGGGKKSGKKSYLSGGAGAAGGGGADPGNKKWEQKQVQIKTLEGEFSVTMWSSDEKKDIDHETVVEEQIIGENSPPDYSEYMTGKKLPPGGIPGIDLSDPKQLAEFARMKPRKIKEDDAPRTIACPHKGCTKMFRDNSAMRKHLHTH
UniProt P25490, 321-414: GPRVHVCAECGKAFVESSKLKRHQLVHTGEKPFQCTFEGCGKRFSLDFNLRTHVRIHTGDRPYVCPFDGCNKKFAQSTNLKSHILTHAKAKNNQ

Tests used:
Experiment in all cases: co-IP
[1] = molecular target: T1, NUSAP1^NTD (Flag-tagged, amino acids 1–158) (UniProt Q9BXS6)
T1 sequence: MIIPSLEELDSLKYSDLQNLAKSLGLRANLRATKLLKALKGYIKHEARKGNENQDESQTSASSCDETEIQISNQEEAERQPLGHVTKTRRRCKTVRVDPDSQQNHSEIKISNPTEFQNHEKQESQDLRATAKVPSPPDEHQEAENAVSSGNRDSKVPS

[2] = molecular target: T2, NUSAP1^CTD (Flag-tagged, amino acids 159–441) (UniProt Q9BXS6)
T2 sequence: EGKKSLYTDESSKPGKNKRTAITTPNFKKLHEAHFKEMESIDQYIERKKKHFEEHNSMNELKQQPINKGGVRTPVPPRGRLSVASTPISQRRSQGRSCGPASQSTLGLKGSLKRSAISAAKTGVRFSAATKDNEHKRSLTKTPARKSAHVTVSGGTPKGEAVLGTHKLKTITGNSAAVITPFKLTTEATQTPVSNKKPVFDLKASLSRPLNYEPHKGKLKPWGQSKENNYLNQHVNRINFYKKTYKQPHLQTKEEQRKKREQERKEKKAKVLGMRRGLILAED

Flag-NUSAP1 = molecular target: T3, Flag-NUSAP1 (UniProt Q9BXS6)
T3 sequence: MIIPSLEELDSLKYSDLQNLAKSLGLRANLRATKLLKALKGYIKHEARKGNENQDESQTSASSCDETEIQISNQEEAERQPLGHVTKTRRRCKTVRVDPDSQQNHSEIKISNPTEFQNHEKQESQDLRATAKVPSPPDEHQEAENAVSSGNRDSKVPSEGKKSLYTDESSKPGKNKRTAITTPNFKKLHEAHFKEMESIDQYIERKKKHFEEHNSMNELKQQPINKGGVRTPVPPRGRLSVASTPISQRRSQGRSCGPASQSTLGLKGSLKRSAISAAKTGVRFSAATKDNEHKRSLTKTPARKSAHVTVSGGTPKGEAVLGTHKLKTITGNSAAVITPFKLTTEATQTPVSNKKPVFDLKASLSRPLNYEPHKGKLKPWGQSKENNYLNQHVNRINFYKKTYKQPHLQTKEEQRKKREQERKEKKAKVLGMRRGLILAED

[3] = molecular target: T4, nucleolar and spindle-associated protein 1 (NUSAP1), endogenous (human (endogenous in THP-1)) (UniProt Q9BXS6)
T4 sequence: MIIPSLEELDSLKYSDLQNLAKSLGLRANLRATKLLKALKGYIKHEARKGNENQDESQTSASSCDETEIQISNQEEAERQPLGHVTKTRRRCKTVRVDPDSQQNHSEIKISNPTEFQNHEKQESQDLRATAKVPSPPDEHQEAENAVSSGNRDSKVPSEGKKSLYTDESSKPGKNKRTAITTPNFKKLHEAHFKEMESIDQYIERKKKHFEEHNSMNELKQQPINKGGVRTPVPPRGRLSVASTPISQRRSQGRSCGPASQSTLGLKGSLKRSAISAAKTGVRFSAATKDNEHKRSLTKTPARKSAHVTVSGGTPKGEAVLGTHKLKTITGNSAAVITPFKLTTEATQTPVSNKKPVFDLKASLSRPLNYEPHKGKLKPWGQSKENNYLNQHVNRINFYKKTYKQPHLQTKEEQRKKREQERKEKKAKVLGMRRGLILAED

[4] = molecular target: Yin Yang 1 (YY1), endogenous (human (endogenous in THP-1)) (UniProt P25490)

With EGFP-YY1 (from UniProt P25490 1-414) the binding [1] was “no binding” and the binding [2] was “binds”.

For HA-YY1 (from UniProt P25490 1-414), the binding (Flag-NUSAP1) was “binds”.

“YY1^CTD (EGFP-YY1^321–414) (from UniProt P25490 321-414) (domain or fragment)” was tested, and the binding (Flag-NUSAP1) was “no binding”.

With “YY1^NTD (EGFP-YY1^1–320) (from UniProt P25490 1-320) (domain or fragment)” the binding (Flag-NUSAP1) was “binds”.

In the case of “Yin Yang 1 (YY1), endogenous (from UniProt P25490 1-414)”, the binding [3] is reported as “binds”.

B1: nucleolar and spindle-associated protein 1 (NUSAP1), endogenous (protein, UniProt Q9BXS6 1-441)
chain: MIIPSLEELDSLKYSDLQNLAKSLGLRANLRATKLLKALKGYIKHEARKGNENQDESQTSASSCDETEIQISNQEEAERQPLGHVTKTRRRCKTVRVDPDSQQNHSEIKISNPTEFQNHEKQESQDLRATAKVPSPPDEHQEAENAVSSGNRDSKVPSEGKKSLYTDESSKPGKNKRTAITTPNFKKLHEAHFKEMESIDQYIERKKKHFEEHNSMNELKQQPINKGGVRTPVPPRGRLSVASTPISQRRSQGRSCGPASQSTLGLKGSLKRSAISAAKTGVRFSAATKDNEHKRSLTKTPARKSAHVTVSGGTPKGEAVLGTHKLKTITGNSAAVITPFKLTTEATQTPVSNKKPVFDLKASLSRPLNYEPHKGKLKPWGQSKENNYLNQHVNRINFYKKTYKQPHLQTKEEQRKKREQERKEKKAKVLGMRRGLILAED
B1 was tested, and the binding [4] was “binds”.
